Measured values reported in US20100204460A1, “NATURAL BRASSINOSTEROIDS FOR USE FOR TREATING HYPERPROLIFERATION, TREATING PROLIFERATIVE DISEASES AND REDUCING ADVERSE EFFECTS OF STEROID DYSFUNCTION IN MAMMALS, PHARMACEUTICAL COMPOSITION AND ITS USE” (priority 2007, published 2010).
Some of these results come from one statement about several compounds together. At least one structure is not confirmed: it was looked up by name or label, or the drawing left a doubt.

Tested on: multiple myeloma cell line RPMI 8226
Assay: Calcein AM cytotoxicity assay, RPMI 8226
Format: cell-based
Conditions: exposure 72 h (b71 says 96 h), mean ± SD, listed as β-sitosterol, read-out: IC50 assessed by Calcein AM assay of surviving cells

In the case of CC[C@H](CC[C@@H](C)[C@H]1CC[C@H]2[C@@H]3CC=C4C[C@@H](O)CC[C@]4(C)[C@H]3CC[C@]12C)C(C)C [Sitosterol], the IC50 is reported as greater than 30 µM.
